Test results from PMC11066007, “CORVET-specific subunit levels determine the balance between HOPS/CORVET endosomal tethering complexes” (Scientific Reports, 2024).
No constants are given. Whether binding was seen depends on the method and setting. In cells and extracts the contact can be indirect. Some results given as binding are weak or reduced against the parent protein; the word gives no strength. Tags and fused reporters may be left off the sequences shown.

Target: T1, VPS11 (human (endogenous in HEK293)) (UniProt Q9H270)
T1 sequence: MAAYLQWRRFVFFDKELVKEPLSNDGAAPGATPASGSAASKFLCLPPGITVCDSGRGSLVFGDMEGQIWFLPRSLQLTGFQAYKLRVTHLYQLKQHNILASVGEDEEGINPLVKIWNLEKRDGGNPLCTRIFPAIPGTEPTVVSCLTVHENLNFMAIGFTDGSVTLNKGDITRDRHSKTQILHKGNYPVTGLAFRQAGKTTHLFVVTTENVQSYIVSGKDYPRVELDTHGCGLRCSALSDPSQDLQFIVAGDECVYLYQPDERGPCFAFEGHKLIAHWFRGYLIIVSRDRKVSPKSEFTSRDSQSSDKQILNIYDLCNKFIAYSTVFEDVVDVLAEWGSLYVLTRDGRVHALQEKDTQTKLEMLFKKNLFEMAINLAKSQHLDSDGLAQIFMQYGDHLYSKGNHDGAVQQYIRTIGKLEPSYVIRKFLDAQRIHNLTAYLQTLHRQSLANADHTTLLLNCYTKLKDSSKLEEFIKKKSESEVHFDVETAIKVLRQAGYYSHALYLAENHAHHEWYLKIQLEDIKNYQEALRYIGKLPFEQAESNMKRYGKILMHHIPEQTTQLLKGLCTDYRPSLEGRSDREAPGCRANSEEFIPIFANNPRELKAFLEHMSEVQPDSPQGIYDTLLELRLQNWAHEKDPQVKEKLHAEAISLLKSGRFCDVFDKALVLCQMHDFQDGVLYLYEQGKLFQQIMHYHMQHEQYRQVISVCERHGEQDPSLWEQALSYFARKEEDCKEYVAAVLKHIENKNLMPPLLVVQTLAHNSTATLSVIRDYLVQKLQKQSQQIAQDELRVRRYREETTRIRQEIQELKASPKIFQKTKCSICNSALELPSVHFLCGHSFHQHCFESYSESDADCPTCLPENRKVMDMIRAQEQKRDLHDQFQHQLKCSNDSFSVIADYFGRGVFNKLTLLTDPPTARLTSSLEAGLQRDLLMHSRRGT
Test: co-IP; anti-FLAG beads on total lysates of HEK293 cells stably transfected with a FLAG-tagged specific subunit, with or without transient overexpression of the counterpart subunit (control: pCMV); endogenous VPS11 and VPS18 detected by western blot, densitometry with ImageJ; lysis buffer 50 mM TRIS-HCl pH 7.5, 150 mM NaCl, 1% Triton X-100, 5 mM EDTA; 1.5 h at 4 °C

B1: VPS8 (untagged) (protein, UniProt Q8N3P4 1-1428)
chain: MENEPDHENVEQSLCAKTSEEELNKSFNLEASLSKFSYIDMDKELEFKNDLIDDKEFDIPQVDTPPTLESILNETDDEDESFILEDPTLLNIDTIDSHSYDTSSVASSDSGDRTNLKRKKKLPDSFSLHGSVMRHSLLKGISAQIVSAADKVDAGLPTAIAVSSLIAVGTSHGLALIFGKDQNQALRLCLGSTSVGGQYGAISALSINNDCSRLLCGFAKGQITMWDLASGKLLRSITDAHPPGTAILHIKFTDDPTLAICNDSGGSVFELTFKRVMGVRTCESRCLFSGSKGEVCCIEPLHSKPELKDHPITQFSLLAMASLTKILVIGLKPSLKVWMTFPYGRMDPSSVPLLAWHFVAVQNYVNPMLAFCRGDVVHFLLVKRDESGAIHVTKQKHLHLYYDLINFTWINSRTVVLLDSVEKLHVIDRQTQEELETVEISEVQLVYNSSHFKSLATGGNVSQALALVGEKACYQSISSYGGQIFYLGTKSVYVMMLRSWRERVDHLLKQDCLTEALALAWSFHEGKAKAVVGLSGDASKRKAIVADRMVEILFHYADRALKKCPDQGKIQVMEQHFQDMVPVIVDYCLLLQRKDLLFSQMYDKLSENSVAKGVFLECLEPYILSDKLVGITPQVMKDLIVHFQDKKLMENVEALIVHMDITSLDIQQVVLMCWENRLYDAMIYVYNRGMNEFISPMEKLFRVIAPPLNAGKTLTDEQVVMGNKLLVYISCCLAGRAYPLGDIPEDLVPLVKNQVFEFLIRLHSAEASPEEEIYPYIRTLLHFDTREFLNVLALTFEDFKNDKQAVEYQQRIVDILLKVMVENSDFTPSQVGCLFTFLARQLAKPDNTLFVNRTLFDQVLEFLCSPDDDSRHSERQQVLLELLQAGGIVQFEESRLIRMAEKAEFYQICEFMYEREHQYDKIIDCYLRDPLREEEVFNYIHNILSIPGHSAEEKQSVWQKAMDHIEELVSLKPCKAAELVATHFSGHIETVIKKLQNQVLLFKFLRSLLDPREGIHVNQELLQISPCITEQFIELLCQFNPTQVIETLQVLECYRLEETIQITQKYQLHEVTAYLLEKKGDIHGAFLIMLERLQSKLQEVTHQGENTKEDPSLKDVEDTMVETIALCQRNSHNLNQQQREALWFPLLEAMMAPQKLSSSAIPHLHSEALKSLTMQVLNSMAAFIALPSILQRILQDPVYGKGKLGEIQGLILGMLDTFNYEQTLLETTTSLLNQDLHWSLCNLRASVTRGLNPKQDYCSICLQQYKRRQEMADEIIVFSCGHLYHSFCLQNKECTVEFEGQTRWTCYKCSSSNKVGKLSENSSEIKKGRITPSQVKMSPSYHQSKGDPTAKKGTSEPVLDPQQIQAFDQLCRLYRGSSRLALLTELSQNRSSESYRPFSGSQSAPAFNSIFQNENFQLQLIPPPVTED
- binding: binds
